{"source": "patent US12661342B2", "about": "“Heteroaryl compounds and therapeutic uses thereof in conditions associated with the alteration of the activity of beta-glucocerebrosidase” (GT GAIN THERAPEUTICS SA, priority 2019, dated 2026)", "biological_target": "T1, β-glucocerebrosidase (Homo sapiens, UniProt P04062, L483P)", "T1 construct": "host or cells: human Gaucher disease patient fibroblasts GM08760A", "T1 sequence (P04062 40-536 L483P)": "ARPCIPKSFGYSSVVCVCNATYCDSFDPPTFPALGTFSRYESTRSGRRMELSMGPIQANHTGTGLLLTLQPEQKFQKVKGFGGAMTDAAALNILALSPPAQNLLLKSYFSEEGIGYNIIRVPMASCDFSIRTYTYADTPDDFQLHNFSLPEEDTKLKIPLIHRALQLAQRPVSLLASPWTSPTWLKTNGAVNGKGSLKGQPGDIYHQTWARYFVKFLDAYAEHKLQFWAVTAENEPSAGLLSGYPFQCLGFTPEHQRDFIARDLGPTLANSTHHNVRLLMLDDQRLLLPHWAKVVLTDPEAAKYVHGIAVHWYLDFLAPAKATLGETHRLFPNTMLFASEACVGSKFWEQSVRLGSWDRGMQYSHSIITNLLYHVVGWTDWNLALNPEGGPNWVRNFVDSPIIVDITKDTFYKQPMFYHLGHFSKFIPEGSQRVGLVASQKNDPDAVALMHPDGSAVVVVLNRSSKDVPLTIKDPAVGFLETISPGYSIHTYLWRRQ", "assay": "Enhancement of β-glucocerebrosidase activity measured in Gaucher disease fibroblasts (4-MU-β-D-glucopyranoside substrate, intact cells)", "type": "cell-based", "conditions": "GBA fibroblasts bearing L444P (GM08760A, homozygous p.L444P); compound at concentrations between 6 and 50 μM; 4 days incubation", "description": "Human fibroblasts from a patient with Gaucher disease homozygous for p.L444P mutation (GM08760A) were purchased from Coriell Institute for Medical Research (Camden, NJ, USA).\nFibroblasts were seeded at 5×10^3 cells per well in 96-well cell culture plates (Corning, NY, USA) in Dulbecco's Modified Eagle's Media (DMEM) supplemented with 10% of fetal bovine serum (FBS), 1% penicillin/streptomycin (P/S) (Thermo Fisher Scientific, Waltham, MA, USA) and grown at 37° C., 5% CO2 overnight for cell attachment. Subsequently, cells were incubated in the absence or presence of the compounds at the desired concentration for 4 days. After incubation, cells were washed twice with phosphate-buffered saline (PBS) and enzyme activity assay was performed.\nβ-glucocerebrosidase activity in intact cultured cells was measured by using 4-methylumbelliferyl-β-D-glucopyranoside substrate (Apollo Scientific, UK). Briefly, cells were incubated with 4-MU-β-D-glucopyranoside in 0.1 M acetate buffer pH=4 at 37° C. for 1 hour. The reaction was stopped by adding 200 μL at 100 mM glycine-NaOH pH=10.7. The liberated 4-MU was measured on a GloMax Discover plate reader (Promega, Madison, WI, USA) with and excitation at 340 nm and emission at 460 nm. Enzyme activities were expressed in treated cells as X-fold increase in comparison with non-treated cells (X=1 represents no enhancement). […]", "note": "For at least one compound, name, drawing or mass did not settle the structure.", "data": [{"compound": "Nc1cc(Nc2ccccc2O)nc(C(=O)Nc2ccccc2)n1", "note": "[Example 57, 4-Amino-6-((2-hydroxyphenyl)amino)-N-phenylpyrimidine-2-carboxamide]", "values": [{"measurement": "Range: increase in enzyme activity in comparison with non-treated cells (Enzyme activity assay for compounds of Examples 33-141)", "result": "B (Increase in comparison with non-treated of >1.7-2.0 fold is shown as B)"}]}, {"compound": "CN(C(=O)c1cc(N)nc(Nc2ccccc2O)n1)C1CCc2ccccc2C1", "note": "(centres unmarked) [Example 9, 6-Amino-2-((2-hydroxyphenyl)amino)-N-methyl-N-(1,2,3,4-tetrahydronaphthalen-2-yl)pyrimidine-4-carboxamide]", "values": [{"measurement": "Range: increase in enzyme activity in comparison with non-treated cells (Enzyme activity assay for exemplified compounds)", "result": "C (Increase in comparison with non-treated of 1.2-1.7 fold is shown as C)"}]}]}
